Experimental findings from PubChem BioAssay AID2685 (National Center for Advancing Translational Sciences (NCATS), 2010) are described below.

A short description of the assay: qHTS Assay for Lipid Storage Modulators in Drosophila S3 Cells.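 As to cell number change: cells counted by Cell Tracker Red CMTPX staining in the red channel.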 To be noted: BODIPY lipid droplet fluorescence, 18-24 h; for cell number change: measured here: cell count max response, cells fed with added oleic acid. In a few lines:
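Drosophila S3 cells got compounds at several concentrations plus oleic acid (400 uM solution). Laser-scanning cytometry with 488 nm excitation read lipid droplets at 500-530 nm and cells at 575-640 nm. Percent activity was relative to 20 uM Triacsin C.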
Background: In qHTS, concentration-response curves come from the screen itself.

[1] abbreviates: measured here: cell number channel AC50, cells fed with added oleic acid.
The mark [2] stands for this setting: measured here: lipid fluorescence (Fed channel) AC50, cells fed with added oleic acid.

SMILES strings stand for the structures. This is one part of the list. These are further read-outs of the screen, such as a control signal, another cell line or another target. No call is given for them. Most of these compounds were active or inconclusive in the main read-out, so they are no random draw. The note in brackets gives the kind of curve behind each potency; many fits are weak.

A word on the AC50: it is the concentration at which the activity in the assay is half-maximal. Higher therefore signals weaker potency. With `CC1(C)CC(=O)C(C(c2cccnc2)C2C(=O)CC(C)(C)CC2=O)C(=O)C1`, the cell number change stood at 47.3%. Moreover, the AC50 under setting [1] was 18.4 µM [rising, single point]. On to `Cc1cc2c3c([nH]c2cc1S(=O)(=O)N1CCC2(CC1)OCCO2)CCCC3=O`, for which the cell number change was -19.5%. In addition, under setting [1], the concentration at half-maximal activity (AC50) was 4.61 µM [falling, single point].

Regarding `CC(C)C[C@H](NC(=O)N1CCn2c1nc1ccccc12)C(=O)NCc1ccccc1`, the cell number change is -11.8%. Under setting [2], the AC50 is 0.146 µM [falling, full curve, poor fit].

With `COc1ccccc1NC(=O)CSc1nc2nccnc2c(=O)n1Cc1cccs1`, the cell number change was 14.5%. Besides, the AC50 under setting [2] is 0.58 µM [falling, single point]. As to `CCOc1cc(/C=C/C(=O)c2ccc(OC)c(CN3CCOCC3)c2)cc(Br)c1O`, the cell number change was -92.1%. `O=C1COc2ccc(C(=O)c3ccccc3C(=O)O)cc2N1`: the cell number change is -2.53%. For the same compound, the AC50 under setting [2] was 0.164 µM [rising, full curve, poor fit].

`Cc1ccc(C(CC(=O)c2ccco2)SCCO)cc1` (centres undefined): the cell number change was -0.862%.

Take `O=C(COC(=O)C1CCN(S(=O)(=O)c2cc([N+](=O)[O-])ccc2Cl)CC1)Nc1ncc(Cl)cc1Cl`: the cell number change was -0.64%. The AC50 under setting [1] was 6.51 µM [falling, single point]. For the same compound, under setting [2], the concentration at half-maximal activity (AC50) is 4.61 µM [falling, partial curve]. Consider `Cc1onc(-c2ccccc2Cl)c1C(=O)O/N=C(\N)c1ccc([N+](=O)[O-])o1`, for which the cell number change is -28.2%. Also, the AC50 under setting [2] is 29.1 µM [falling, single point]. For `COC(=O)c1ccc(CNC(=O)CSc2nc3sc(C)c(C)c3c(=O)n2C)o1`, the cell number change was 24.5%. Further, under setting [2], the AC50 is 0.411 µM [rising, single point]. Regarding `Oc1oc(-c2ccc(Br)cc2)nc1C=Nc1ccc(Br)cn1`, the cell number change turned out to be 13.1%. In addition, the AC50 under setting [2] is 14.6 µM [rising, partial curve, poor fit]. As for `O=C(O)C1CCCCC1C(=O)OCCCCOC(=O)C1CCCCC1C(=O)O` (centres undefined), the cell number change was -4.46%. The half-maximal activity concentration (AC50) under setting [2] is 1.3 µM [falling, full curve, poor fit]. As for `CC(C)CCn1c(Sc2nc3ccccc3o2)nc2c1c(=O)[nH]c(=O)n2C`, the cell number change worked out at 0.161%. Besides, under setting [2], the half-maximal activity concentration (AC50) was 18.4 µM [falling, partial curve, poor fit]. Turning to `CNC(=O)c1nn(-c2ccc(C)cc2)ccc1=O`, the cell number change is -84.6%. For the same compound, under setting [1], the AC50 is 32.6 µM [falling, partial curve]. In addition, the AC50 under setting [2] is 18.4 µM [falling, partial curve, poor fit].

Regarding `Cc1ccc(-c2nn(CC(=O)Nc3cccnc3)c(=O)c3ccccc23)cc1`, the cell number change was 35.5%. The concentration at half-maximal activity (AC50) under setting [1] was 0.82 µM [rising, full curve]. Further, under setting [2], the AC50 was 18.4 µM [rising, partial curve]. On to `CCN(C(=O)COC(=O)c1cccc(-n2cnnn2)c1)C1CCCCC1`, for which the cell number change was -35.2%. Further, the AC50 under setting [1] was 0.58 µM [rising, single point].

Take `Cc1ccc(C(=O)NC(=S)Nc2cc(C(F)(F)F)ccc2Cl)cc1`: the cell number change worked out at 136%. Further, the AC50 under setting [2] is 29.1 µM [rising, partial curve, poor fit].

Turning to `CCOc1ccc(S(=O)(=O)Nc2ccc3c(c2)OCO3)cc1`, the cell number change worked out at 10.1%. Further, the AC50 under setting [2] was 6.51 µM [falling, single point]. `O=C(CSc1nnc(-c2ccc(Br)o2)n1Cc1ccccc1)c1ccccc1F`: the AC50 runs as follows: under setting [1], 0.291 µM [rising, partial curve, poor fit]; under setting [2], 0.651 µM [rising, full curve]. Take `O=C(O)c1cccc(Nc2ncnc3c2cnn3-c2ccccc2)c1`: the cell number change was found to be 1.25%. In addition, the half-maximal activity concentration (AC50) under setting [2] is 0.82 µM [falling, partial curve]. With `COc1ccc(CC(=O)Nc2cccc(C(=O)O)c2C)cc1`, the cell number change was -4.97%. Also, the concentration at half-maximal activity (AC50) under setting [2] was 29.1 µM [falling, single point]. `CCOC(=O)C1CCN(S(=O)(=O)c2cc(Cl)c(C)cc2OC)CC1`: the cell number change was -10.4%.

Regarding `COc1ccc(-c2nc(CS(=O)(=O)CC(=O)NCc3cccc(F)c3)c(C)o2)cc1`, the cell number change is 44.1%. Further, the AC50 under setting [1] is 32.6 µM [rising, single point]. For the compound `CCC(C)(C)NC(=O)/C=C/c1ccccc1[N+](=O)[O-]`, the cell number change was found to be 62.1%. Under setting [1], the AC50 was 18.4 µM [rising, single point]. As to `CCCc1nc2c(=O)n(C)c(=O)[nH]c2n1C`, the cell number change is -9.86%. The concentration at half-maximal activity (AC50) under setting [2] is 1.64 µM [falling, partial curve]. For the compound `CC(C)c1nc2oc3ccccc3c(=O)c2c(=O)n1-c1ccccc1`, the cell number change was -2.45%. Same read-out and setting: next, `COc1ccc(S(=O)(=O)Nc2ccccc2C(=O)NCc2ccco2)cc1Br`: -13.7%. Consider `Cc1cc(C)n(C2CCCCC2OC(=O)c2ccccc2)n1` (centres undefined), for which the cell number change stood at 33.6%. Further, the AC50 under setting [1] was 23.1 µM [rising, single point]. Under setting [2], the AC50 is 16.4 µM [rising, partial curve]. With `NC(=O)C1CCN(C(=O)c2ccc(NS(=O)(=O)c3ccc(F)c(F)c3)cc2)CC1`, the cell number change was -1.08%. For the same compound, under setting [2], the concentration at half-maximal activity (AC50) is 6.51 µM [rising, partial curve, poor fit]. For `COc1cc(C)nc2nc(SCc3ccccc3)nn12`, the cell number change turned out to be 34.2%. The AC50 under setting [1] was 29.1 µM [rising, single point]. Further, under setting [2], the AC50 was 29.1 µM [rising, single point].

Take `O=C(Nc1ccc(O)cc1)c1ccc2c(c1)C(=O)N(Cc1ccccc1)C2=O`: the cell number change was -47.5%. In addition, the AC50 under setting [1] was 29.1 µM [falling, single point]. The AC50 under setting [2] is 1.84 µM [falling, partial curve]. For the compound `COc1ccc(NC(=O)CSc2nnc(CNC(=O)c3ccco3)o2)c(OC)c1`, the cell number change turned out to be 33.9%. The half-maximal activity concentration (AC50) under setting [1] is 29.1 µM [rising, single point]. Consider `CCS(=O)(=O)N1Cc2ccccc2CC1C(=O)NC(C)C12CC3CC(CC(C3)C1)C2` (centres undefined), for which the concentration at half-maximal activity (AC50) under setting [2] is 25.9 µM [falling, partial curve]. As for `COc1ccccc1N1CCN(C(=O)NCc2ccc(Cl)cc2)CC1`, the cell number change was -7.66%. Besides, under setting [2], the concentration at half-maximal activity (AC50) was 29.1 µM [rising, partial curve]. For the compound `O=C(CCCOC(=O)c1ccc(O)cc1O)c1ccc(Br)cc1`, the cell number change is -50.7%. Also, under setting [1], the half-maximal activity concentration (AC50) is 32.6 µM [falling, single point]. As to `COc1cccc(CNC(=O)C(CCSC)NS(=O)(=O)c2ccc3c(c2)oc(=O)n3C)c1` (centres undefined), the concentration at half-maximal activity (AC50) under setting [2] is 0.651 µM [falling, single point]. For `Cc1cc(NC(=O)CC#N)n(-c2ccccc2)n1`, the cell number change was -32.2%.

With `Cc1ccc(S(=O)(=O)N(CC(=O)Nc2ccc(F)cc2)C(=O)N2CCN(C)CC2)cc1`, the cell number change was 4.61%. Besides, under setting [2], the half-maximal activity concentration (AC50) was 29.1 µM [falling, single point].
